At least one structure is not confirmed: it was looked up by name or label, or the drawing left a doubt.
Tested on: Demodex mites
Assay: In vitro Demodex survival time assay
Details: in vitro assay (FIG. 3 and 4)
Description: FIG. 4 summarizes the activity of 10% chloroquine in water relative to a water control on activity against Demodex mites in an in vitro assay, with an LT50 of 31.6 hours for chloroquine compared to 44.8 hours for the water control, illustrating the inactivation effect of chloroquine on Demodex.
Example 4: In vitro efficacy and mite lifetimes: Relative efficacy of various formulations are evaluated with a Demodex survival time experiments. FIG. 3 tabulates Demodex survival time, expressed in terms of LT50 (time at which 50% of Demodex mites are killed) and/or average minutes to death for various active agents.

Compound: C[C@H]1c2cccc(O)c2C(=O)C2=C(O)[C@]3(O)C(=O)C(C(N)=O)=C(O)[C@@H](N(C)C)[C@@H]3[C@@H](O)[C@@H]21 [doxycycline]
- activity against Demodex mites: does have activity against the mite

Source: US20210077559A1, “Treating Autoimmune Disorders with Acetylcholinesterase Inhibitors” (priority 2018, published 2021)
